Experimental findings from article PMC6633205, “Cus2 enforces the first ATP-dependent step of splicing by binding to yeast SF3b1 through a UHM–ULM interaction” (RNA, 2019) are described below.

Sequences of proteins named here, by UniProt entry; tags and fusion partners are left off. A change or cut given only in a name is not applied to a line headed by its entry.
UniProt P53830: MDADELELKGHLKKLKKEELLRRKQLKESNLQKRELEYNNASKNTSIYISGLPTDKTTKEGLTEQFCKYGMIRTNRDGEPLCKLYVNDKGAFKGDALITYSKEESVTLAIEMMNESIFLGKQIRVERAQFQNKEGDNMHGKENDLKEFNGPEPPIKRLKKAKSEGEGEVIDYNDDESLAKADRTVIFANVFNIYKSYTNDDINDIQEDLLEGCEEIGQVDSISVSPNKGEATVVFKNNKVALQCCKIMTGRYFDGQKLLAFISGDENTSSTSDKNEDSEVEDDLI
UniProt P49955: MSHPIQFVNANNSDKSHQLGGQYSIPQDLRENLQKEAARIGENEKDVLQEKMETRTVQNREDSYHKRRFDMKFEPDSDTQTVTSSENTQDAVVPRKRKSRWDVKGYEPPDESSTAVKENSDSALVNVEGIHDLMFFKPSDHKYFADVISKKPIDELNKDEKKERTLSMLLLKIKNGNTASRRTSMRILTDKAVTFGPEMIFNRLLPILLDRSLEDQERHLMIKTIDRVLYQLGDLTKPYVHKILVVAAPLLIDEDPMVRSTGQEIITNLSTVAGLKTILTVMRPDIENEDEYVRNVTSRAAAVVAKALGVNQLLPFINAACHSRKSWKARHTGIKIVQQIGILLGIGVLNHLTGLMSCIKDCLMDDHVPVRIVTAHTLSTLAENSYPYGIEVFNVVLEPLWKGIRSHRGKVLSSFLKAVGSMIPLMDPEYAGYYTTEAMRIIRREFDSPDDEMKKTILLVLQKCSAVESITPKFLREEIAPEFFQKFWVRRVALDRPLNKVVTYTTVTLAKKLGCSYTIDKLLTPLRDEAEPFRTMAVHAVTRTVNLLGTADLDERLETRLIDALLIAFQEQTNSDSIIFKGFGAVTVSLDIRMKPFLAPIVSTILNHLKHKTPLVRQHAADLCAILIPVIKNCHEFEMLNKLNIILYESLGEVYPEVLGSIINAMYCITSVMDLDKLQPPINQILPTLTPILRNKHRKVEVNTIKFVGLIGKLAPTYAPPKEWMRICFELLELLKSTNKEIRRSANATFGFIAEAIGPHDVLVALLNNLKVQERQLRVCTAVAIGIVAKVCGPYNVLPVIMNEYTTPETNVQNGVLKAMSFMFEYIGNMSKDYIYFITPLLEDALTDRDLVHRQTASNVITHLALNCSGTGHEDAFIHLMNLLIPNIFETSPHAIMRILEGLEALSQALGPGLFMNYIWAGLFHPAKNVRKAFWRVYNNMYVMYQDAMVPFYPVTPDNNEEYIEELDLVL

For experiment [1], the target named is Cus2 D204K fused to the GAL4 DNA-binding domain (S. cerevisiae) (UniProt P53830). Nature of the experiment: two-hybrid; Cus2 proteins fused to the GAL4 DNA-binding domain (pAS2) against Hsh155 fused to the GAL4 activation domain (pACT) in yeast strain y190; GAL/UAS-HIS3 reporter, growth on SCD -Leu -Trp -His with 25 mM 3-AT.
Experiment [2] deals with Cus2 F235A (F253 in the legends) fused to the GAL4 DNA-binding domain (S. cerevisiae) (UniProt P53830). Described as above.

These are yes or no findings as the source states them, for the method shown.

Consider “Hsh155, full length, wild type, fused to the GAL4 activation domain (from UniProt P49955 1-971)”, for which the binding result in experiment [1] and in experiment [2] was “no binding” in each case.
